No constants are given. Whether binding was seen depends on the method and setting. Binding seen in cells or lysates may run through a third protein. A yes stands for co-enrichment or nearness to the bait. Other partners may have been found. Tags and fused reporters may be left off the sequences shown.

Sequences of proteins named here, by UniProt entry; tags and fusion partners are left off.
UniProt Q8VEK3: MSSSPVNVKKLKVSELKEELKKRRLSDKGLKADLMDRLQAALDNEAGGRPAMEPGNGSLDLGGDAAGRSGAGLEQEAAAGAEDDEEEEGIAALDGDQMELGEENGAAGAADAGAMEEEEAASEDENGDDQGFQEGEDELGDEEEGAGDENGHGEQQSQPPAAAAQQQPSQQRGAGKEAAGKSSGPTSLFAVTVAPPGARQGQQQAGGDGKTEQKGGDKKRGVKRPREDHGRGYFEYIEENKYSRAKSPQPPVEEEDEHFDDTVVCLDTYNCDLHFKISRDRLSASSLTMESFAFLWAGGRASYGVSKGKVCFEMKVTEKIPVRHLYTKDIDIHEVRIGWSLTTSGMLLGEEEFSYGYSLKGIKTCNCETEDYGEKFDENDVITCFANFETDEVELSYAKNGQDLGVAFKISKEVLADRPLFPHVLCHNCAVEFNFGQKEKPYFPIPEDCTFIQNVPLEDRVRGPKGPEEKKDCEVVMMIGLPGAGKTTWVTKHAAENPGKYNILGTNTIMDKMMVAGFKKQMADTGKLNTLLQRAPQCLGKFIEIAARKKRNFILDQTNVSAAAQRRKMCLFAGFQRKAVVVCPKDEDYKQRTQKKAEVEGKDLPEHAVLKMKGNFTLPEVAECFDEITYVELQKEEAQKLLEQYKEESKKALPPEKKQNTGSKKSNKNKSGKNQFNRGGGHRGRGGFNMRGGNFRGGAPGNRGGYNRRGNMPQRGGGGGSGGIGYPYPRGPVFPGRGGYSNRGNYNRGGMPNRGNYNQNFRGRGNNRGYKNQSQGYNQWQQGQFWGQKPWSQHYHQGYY
UniProt Q5SF07: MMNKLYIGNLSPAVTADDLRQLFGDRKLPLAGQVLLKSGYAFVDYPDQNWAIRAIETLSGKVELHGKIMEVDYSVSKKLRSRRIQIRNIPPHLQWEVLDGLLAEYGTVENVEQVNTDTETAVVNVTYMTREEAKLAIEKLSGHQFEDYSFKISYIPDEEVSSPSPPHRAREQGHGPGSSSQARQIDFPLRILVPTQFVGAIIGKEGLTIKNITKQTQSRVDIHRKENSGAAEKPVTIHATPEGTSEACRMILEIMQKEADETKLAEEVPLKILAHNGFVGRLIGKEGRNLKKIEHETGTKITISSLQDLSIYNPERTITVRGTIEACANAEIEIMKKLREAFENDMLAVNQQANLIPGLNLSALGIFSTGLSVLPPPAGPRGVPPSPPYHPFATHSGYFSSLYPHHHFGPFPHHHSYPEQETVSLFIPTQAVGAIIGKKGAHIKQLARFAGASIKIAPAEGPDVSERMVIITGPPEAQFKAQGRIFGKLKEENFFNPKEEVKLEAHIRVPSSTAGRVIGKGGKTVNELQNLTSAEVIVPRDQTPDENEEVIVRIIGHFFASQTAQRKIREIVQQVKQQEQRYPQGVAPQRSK

The target of the assay is T1, Lin28a-Flag (mouse) (UniProt Q8K3Y3).
T1 sequence: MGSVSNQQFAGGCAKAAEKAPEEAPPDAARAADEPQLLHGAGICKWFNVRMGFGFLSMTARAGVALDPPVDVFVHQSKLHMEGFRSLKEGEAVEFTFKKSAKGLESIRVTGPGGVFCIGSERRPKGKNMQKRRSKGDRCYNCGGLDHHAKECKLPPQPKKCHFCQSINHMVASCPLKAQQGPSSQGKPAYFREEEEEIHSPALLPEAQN
Nature of the assay: affinity purification with mass spectrometry; lysate (polysome lysis buffer) of EpiLCs transfected with Lin28a-Flag run on Superose 6 Increase 10/300 GL (KCl 100 mM, TrisCl pH 7.8 20 mM, MgCl2 5 mM); Lin28a-containing fractions immunoprecipitated with anti-Flag affinity gel; nanoLC-ESI-Q-Orbitrap-MS/MS; mock-transfected cells as background; a parallel run with lysate pretreated with 40 µg/ml RNase A.
Regarding Hnrnpu (from UniProt Q8VEK3 1-800), the binding result is on record as “binds”.

For Igf2bp2 (from UniProt Q5SF07 1-592), the binding entry is “binds”. In the case of Hnrnpk (from UniProt P61979 1-463), the binding result is “binds”.

The values are drawn from publication PMC7841167.
